The values that follow come from PubChem BioAssay AID2685 (National Center for Advancing Translational Sciences (NCATS), 2010).

A short description of the assay: qHTS Assay for Lipid Storage Modulators in Drosophila S3 Cells.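 On cell number change: cells counted by Cell Tracker Red CMTPX staining in the red channel.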 To be noted: BODIPY lipid droplet fluorescence, 18-24 h; for cell number change: measured here: cell count max response, cells fed with added oleic acid. In outline: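 Drosophila S3 cells got compounds at several concentrations plus oleic acid (400 uM solution). Laser-scanning cytometry with 488 nm excitation read lipid droplets at 500-530 nm and cells at 575-640 nm. Percent activity was relative to 20 uM Triacsin C.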
Background: In qHTS, concentration-response curves come from the screen itself.

[1] abbreviates: measured here: cell number channel AC50, cells fed with added oleic acid.
The mark [2] stands for this setting: measured here: lipid fluorescence (Fed channel) AC50, cells fed with added oleic acid.

This is one part of the list. These are further read-outs of the screen, such as a control signal, another cell line or another target. No call is given for them. Compounds called inactive in the main read-out are mostly missing here. Words in brackets tell the shape of the fitted curve; partial curves, single points and poor fits give uncertain potencies.

With `Cc1nn(Cc2ccccc2)c(Cl)c1/C=C1\NC(=S)NC1=O`, the cell number change is -11.3%. For the same compound, the AC50 (usually the midpoint of the concentration-response curve, whichever way the signal moves) under setting [1] was 1.16 µM [falling, single point].
Turning to `CCC(=O)Nc1cccc(NC(=S)NC(=O)c2ccccc2C)c1`, the AC50 was 6.51 µM [rising, single point] under setting [1] and 6.51 µM [rising, single point] under setting [2].
With `COc1ccc(N2CCn3c2nc2c3c(=O)n(CCCc3ccccc3)c(=O)n2C)cc1`, the cell number change worked out at 5.89%. Besides, the AC50 under setting [2] was 0.206 µM [rising, full curve, poor fit].
Regarding `Cc1ncsc1CCC(=O)N1CCCC(C(=O)c2ccc3c(c2)OCO3)C1` (centres undefined), the cell number change was found to be 3.88%. Besides, under setting [2], the AC50 was 29.1 µM [falling, single point].
In the case of `O=C1Nc2ccccc2C1Cc1ccccc1` (centres undefined), under setting [2], the AC50 was 1.84 µM [rising, partial curve].
In the case of `O=C(c1ccccc1)c1cn[nH]c1-c1ccccc1O`, the cell number change was -3.16%. Moreover, the AC50 under setting [2] is 2.91 µM [falling, single point].
As to `Cn1c(SCC(=O)NC2CCCC2)nnc1-c1ccc(S(=O)(=O)N2CCOCC2)cc1`, the cell number change was -85.3%. In addition, under setting [1], the AC50 is 18.4 µM [falling, partial curve]. The AC50 under setting [2] is 20.6 µM [falling, partial curve].
Turning to `COc1ccccc1NC(=O)CC1S/C(=N/N=C2\CCCc3ccccc32)NC1=O` (centres undefined), the cell number change was -49.3%. Further, the AC50 under setting [1] is 16.4 µM [falling, partial curve, poor fit].
In the case of `O=C(c1nn2c(C(F)(F)F)cc(-c3cccs3)nc2c1Cl)N1CCCc2ccccc21`, the cell number change came out at 5.47%. The AC50 under setting [2] was 0.13 µM [rising, full curve, poor fit].
In the case of `CCOC(=O)c1cc(CN2CCOCC2)oc1-c1ccccc1`, the cell number change was -29.4%.
With `O=C(CSc1ccc2nnc(-c3cccc(F)c3)n2n1)NCC1CCCO1` (centres undefined), the cell number change was 29%. For the same compound, the AC50 under setting [1] was 1.46 µM [rising, full curve, poor fit]. Moreover, the AC50 under setting [2] was 1.46 µM [rising, partial curve].
Consider `Nc1no[n+]([O-])c1-c1ccccc1`, for which the cell number change is -15.2%.
Same read-out and setting: next, `CCn1c(C)nc2cc(C(=O)N/N=C/c3ccccc3C)ccc21`: -26.1%.
In the case of `CN(C)CCNC(=O)c1cc2c(s1)-c1ccccc1OC2`, the cell number change worked out at 62.4%. Further, the AC50 under setting [1] was 29.1 µM [rising, single point]. Moreover, under setting [2], the AC50 is 29.1 µM [rising, single point].
As for `COc1ccc(-n2nc(C(=O)NCC(=O)N3CCCC3)c3ccccc3c2=O)cc1`, the cell number change came to 16.7%.
Turning to `Cc1ccc(C)c(N2CCN(C(=O)c3nn(C)c4c3CS(=O)(=O)c3ccccc3-4)CC2)c1`, the cell number change came out at 19.4%.
As to `CCOc1cc(CNn2c(C)nnc2SCC(=O)NC(C)(C)C)ccc1OCC(=O)NC(C)(C)C`, the cell number change is -15.9%. The AC50 under setting [2] was 13 µM [falling, single point].
Take `NC(=O)C1(N2CCCCC2)CCN(C(=S)Nc2ccc(S(N)(=O)=O)cc2)CC1`: the cell number change turned out to be 7.3%. The AC50 under setting [2] was 0.82 µM [falling, single point].
Take `Nn1c(SCC(=O)NNC(=O)c2ccccc2)nnc1-c1ccccc1F`: the cell number change stood at 5.62%.
For `O=C(Nc1cccc(NC(=O)c2ccc(-c3ccc(Br)cc3)o2)c1)c1ccccc1`, the cell number change was determined as 76.5%. For the same compound, the AC50 under setting [1] is 1.16 µM [rising, full curve]. Besides, the half-maximal activity concentration (AC50) under setting [2] is 1.84 µM [rising, partial curve].
As to `COc1ccc(NS(=O)(=O)c2ccc3c(c2)NC(=O)CO3)cc1`, the cell number change is 15.7%.
Turning to `Cc1ccn2c(Nc3ccccc3C)c(-c3cccnc3)nc2c1`, the cell number change is 39.4%. Moreover, under setting [2], the AC50 is 29.1 µM [rising, single point].
As for `COCCCNC(=O)Cn1nnc(-c2ccc(NC(=O)c3ccc(F)cc3)cc2)n1`, the cell number change turned out to be 11.7%. Under setting [2], the AC50 is 6.51 µM [rising, single point].
Consider `COc1ccccc1/C=C/C(=O)NCCC1=CCCCC1`, for which the cell number change is -38.4%. Further, under setting [1], the AC50 was 23.1 µM [falling, partial curve, poor fit].
Regarding `Oc1cc(NCc2cccnc2)ccc1-c1nc2ccccc2o1`, the cell number change is -16.2%.
For the compound `O=C(NC(=S)Nc1ccc(NC(=O)c2ccccc2)cc1)c1ccc(F)cc1`, the cell number change came out at 135%. Further, the AC50 under setting [1] was 29.1 µM [rising, single point]. Further, under setting [2], the AC50 is 0.103 µM [rising, full curve, poor fit].
For the compound `CC(C)/C(=N\NC(=O)Nc1ccccc1)c1ccccc1`, the cell number change was 59.2%. Also, the concentration at half-maximal activity (AC50) under setting [1] is 9.2 µM [rising, partial curve]. Besides, under setting [2], the AC50 is 18.4 µM [rising, single point].
As to `Cc1ccc(S(=O)(=O)Nc2c(NC3CCCCC3)c3ccccc3oc2=O)cc1C`, the cell number change is -50.8%. Under setting [1], the concentration at half-maximal activity (AC50) was 29.1 µM [falling, single point]. Moreover, the AC50 under setting [2] was 29.1 µM [falling, single point].
With `CCN(CC)CCNS(=O)(=O)c1ccc2[nH]cc(C(=O)O)c(=O)c2c1`, the cell number change is -5.97%. Further, the AC50 under setting [2] was 25.9 µM [falling, partial curve].
Consider `Cc1ccc(S(=O)(=O)N2CCN(C(=O)CN3C(=O)NC4(CCOc5ccccc54)C3=O)CC2)cc1` (centres undefined), for which the cell number change amounted to 37%. In addition, the AC50 under setting [1] is 23.1 µM [rising, single point]. Besides, under setting [2], the half-maximal activity concentration (AC50) was 0.082 µM [falling, full curve, poor fit].
For `CC1CCC2(CC1)NC(=O)N(CC(=O)NCCc1c[nH]c3ccccc13)C2=O` (centres undefined), the cell number change was 0.154%.
`COc1ccc(C(=O)NCc2ccncc2)cc1S(=O)(=O)N1CCOCC1`: the cell number change is -8.96%. For the same compound, the AC50 under setting [2] is 6.51 µM [falling, single point].
Turning to `Cc1ccc(/C(N)=N/OC(=O)Cc2cccc3ccccc23)cc1`, the AC50 was 0.58 µM [rising, full curve] under setting [1] and 0.461 µM [rising, partial curve, poor fit] under setting [2].
Take `Cc1ccc(NC(=O)Nc2cnccn2)c(C)c1`: the cell number change is 8.42%. Moreover, the AC50 under setting [2] was 29.1 µM [falling, single point].
For the compound `CCOc1cc(/C=N/n2cnnc2)ccc1OCC(=O)Nc1ccccc1OC`, the cell number change came to 14.5%. In addition, under setting [2], the AC50 was 2.06 µM [rising, full curve].
As for `CC(C)C(O)(C#CCN1CCCCC1)c1ccccc1` (centres undefined), the cell number change was -50.5%. Also, the AC50 under setting [1] was 0.651 µM [falling, full curve]. Further, the AC50 under setting [2] is 29.1 µM [falling, single point].
`CCc1ccc(CNC(=O)c2ccc3nc(C4CCCCC4)oc3c2)nc1`: the cell number change was -19.7%. Moreover, under setting [2], the AC50 is 32.6 µM [falling, partial curve].
Consider `O=C(Nc1cccnc1)c1ccc(S(=O)(=O)N2CCCCCC2)cc1`, for which the cell number change came to 5.9%. In addition, the AC50 under setting [2] is 0.082 µM [falling, full curve, poor fit].
On to `Cc1cc(C(=O)OCC(=O)Nc2cccnc2Cl)c2ccccc2n1`, for which the cell number change was 31%. Under setting [1], the half-maximal activity concentration (AC50) was 0.00461 µM [rising, full curve]. For the same compound, the half-maximal activity concentration (AC50) under setting [2] is 0.00461 µM [rising, full curve, poor fit].
As to `Cc1ccc2cccc(OCc3nnc(SCC(=O)O)n3C)c2n1`, the cell number change was -39.8%. Moreover, the AC50 under setting [1] is 11.6 µM [falling, partial curve, poor fit]. In addition, the AC50 under setting [2] was 10.3 µM [falling, partial curve, poor fit].
In the case of `CCSCc1nc2ccccn2c1Br`, the cell number change was -41.7%. Besides, the AC50 under setting [1] was 0.58 µM [falling, full curve]. The half-maximal activity concentration (AC50) under setting [2] was 0.651 µM [falling, partial curve].
For the compound `O=C1/C(=C\c2ccc(C(F)(F)F)cc2)CSc2sccc21`, the cell number change is -56.1%. In addition, the AC50 under setting [1] was 29.1 µM [falling, single point].
For `Cc1ccc(S(=O)(=O)N(C)C)cc1NC(=O)COC(=O)C1=COCCO1`, the cell number change is -0.535%. Further, under setting [2], the AC50 was 6.51 µM [rising, single point].
As to `CCOC(=O)Cn1nc(C)cc1NC(=O)c1cc(OC)c(OC)c(OC)c1`, the cell number change is 24%. Also, the AC50 under setting [2] was 29.1 µM [rising, single point].
Consider `COc1cc(CSc2nnnn2-c2ccc(C)cc2)cc(OC)c1OC`, for which the cell number change came out at 0.167%. Besides, the half-maximal activity concentration (AC50) under setting [2] was 29.1 µM [falling, partial curve].
Consider `COC(=O)c1c(C)[nH]c(C(=O)OC(C)C(=O)N(C)C2CCCCC2)c1C` (centres undefined), for which the AC50 was 2.59 µM [rising, partial curve, poor fit] under setting [1] and 1.46 µM [rising, partial curve, poor fit] under setting [2].
On to `Cc1ccnc2c(N3C(=O)C4C5C=CC(C5)C4C3=O)cccc12` (centres undefined), for which the cell number change came to 17%. Further, the half-maximal activity concentration (AC50) under setting [1] is 2.59 µM [rising, single point]. Also, under setting [2], the concentration at half-maximal activity (AC50) was 8.2 µM [rising, partial curve, poor fit].
For `O=C(Nc1ccccn1)C1CCN(c2ncnc3c2nc2n3CCCCC2)CC1`, the cell number change amounted to 3.58%. Moreover, the AC50 under setting [2] was 0.184 µM [falling, full curve, poor fit].
Turning to `CSCC(O)Cn1ncc2ccccc2c1=O` (centres undefined), the cell number change was 1.09%. Besides, the AC50 under setting [2] was 0.058 µM [falling, full curve].
With `Cc1ccccc1NC(=O)C(=O)NNC(=O)COc1ccc2ccccc2c1`, the cell number change stood at 12.6%. The AC50 under setting [2] is 29.1 µM [rising, single point].
Turning to `Cc1ccc(Nc2nc(-c3cccnc3)nc3ccccc23)cc1`, the cell number change was -45.5%. Also, under setting [1], the AC50 is 29.1 µM [falling, single point]. Besides, under setting [2], the AC50 is 29.1 µM [falling, single point].
For the compound `O=C(CP(=O)(O)CC(=O)c1ccccc1)c1ccccc1`, the cell number change was -11.2%. The AC50 under setting [2] is 29.1 µM [falling, single point].
As for `O=c1cc(-c2ccccc2Cl)oc2ccc([N+](=O)[O-])c(O)c12`, the cell number change was found to be 11.8%. Moreover, under setting [2], the AC50 is 0.058 µM [rising, full curve, poor fit].
As to `COc1cc(C)c(C)cc1S(=O)(=O)NC1CC(C)(C)NC(C)(C)C1`, the cell number change stood at 1.4%. Further, the AC50 under setting [2] was 25.9 µM [rising, single point].
For the compound `Cc1ccn(CC(=O)N2N=C(C(F)F)CC2(O)C(F)F)n1` (centres undefined), the cell number change was -26.5%. The AC50 under setting [1] was 3.66 µM [falling, full curve, poor fit]. For the same compound, the AC50 under setting [2] is 3.66 µM [falling, full curve].
As for `O=C(CSC1=NS(=O)(=O)c2cc(Cl)ccc2N1)Nc1ccccc1C(F)(F)F`, under setting [1], the AC50 is 6.51 µM [rising, single point].
As for `COc1ccnc(N2CCN(c3ccccc3)CC2)c1C#N`, the AC50 under setting [2] was 6.51 µM [rising, single point].
As for `CCc1nnc(NC(=O)CN2C(=O)/C(=C/c3cc(OC)c(OC)c(OC)c3)SC2=S)s1`, the cell number change stood at 6.04%. In addition, under setting [2], the AC50 was 18.4 µM [rising, single point].
